These are yes or no findings as the source states them, for the method shown. In cells and extracts the contact can be indirect. A yes stands for co-enrichment or nearness to the bait. Other partners may have been found.
Assays:
[1] = target: T1, CHCHD6 (human (endogenous in HeLa)) (UniProt Q9BRQ6); experiment: affinity purification with mass spectrometry; IP of endogenous Mitofilin or CHCHD6 from HeLa lysate with antibody crosslinked to protein A Sepharose beads, overnight at 4 °C, washed with cold PBS; TCA-precipitated immunoprecipitates analysed by LC-MS/MS
T1 sequence: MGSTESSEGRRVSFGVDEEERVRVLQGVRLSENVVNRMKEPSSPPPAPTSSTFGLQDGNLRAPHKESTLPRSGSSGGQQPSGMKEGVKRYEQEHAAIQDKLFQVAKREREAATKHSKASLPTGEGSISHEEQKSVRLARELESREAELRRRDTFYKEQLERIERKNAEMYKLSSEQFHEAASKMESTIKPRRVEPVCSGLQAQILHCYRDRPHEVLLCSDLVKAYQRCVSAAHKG

[2] = target: T2, Mitofilin (human (endogenous in HeLa)) (UniProt Q16891); experiment: as above
T2 sequence: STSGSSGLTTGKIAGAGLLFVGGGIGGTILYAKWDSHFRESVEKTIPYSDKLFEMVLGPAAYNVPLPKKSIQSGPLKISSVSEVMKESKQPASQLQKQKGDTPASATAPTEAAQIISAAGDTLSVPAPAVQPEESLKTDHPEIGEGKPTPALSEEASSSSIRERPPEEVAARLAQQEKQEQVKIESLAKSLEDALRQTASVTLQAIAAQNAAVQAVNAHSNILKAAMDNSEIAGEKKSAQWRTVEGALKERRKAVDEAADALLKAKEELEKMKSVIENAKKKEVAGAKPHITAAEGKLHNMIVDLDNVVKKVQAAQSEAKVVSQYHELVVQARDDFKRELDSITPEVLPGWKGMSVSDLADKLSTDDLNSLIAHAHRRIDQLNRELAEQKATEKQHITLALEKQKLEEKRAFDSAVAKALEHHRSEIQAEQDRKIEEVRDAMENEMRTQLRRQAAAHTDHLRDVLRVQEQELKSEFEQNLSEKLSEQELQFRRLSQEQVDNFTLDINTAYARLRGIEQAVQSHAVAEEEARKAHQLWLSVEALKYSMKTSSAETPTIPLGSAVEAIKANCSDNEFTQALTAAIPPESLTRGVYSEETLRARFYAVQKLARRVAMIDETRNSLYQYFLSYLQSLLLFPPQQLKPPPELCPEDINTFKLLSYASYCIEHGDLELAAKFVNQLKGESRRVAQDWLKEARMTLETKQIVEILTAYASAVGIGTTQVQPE

binding [1]: binds
binding [2]: binds
B1: Sam50 (protein, UniProt Q9Y512 1-469)
chain: MGTVHARSLEPLPSSGPDFGGLGEEAEFVEVEPEAKQEILENKDVVVQHVHFDGLGRTKDDIIICEIGDVFKAKNLIEVMRKSHEAREKLLRLGIFRQVDVLIDTCQGDDALPNGLDVTFEVTELRRLTGSYNTMVGNNEGSMVLGLKLPNLLGRAEKVTFQFSYGTKETSYGLSFFKPRPGNFERNFSVNLYKVTGQFPWSSLRETDRGMSAEYSFPIWKTSHTVKWEGVWRELGCLSRTASFAVRKESGHSLKSSLSHAMVIDSRNSSILPRRGALLKVNQELAGYTGGDVSFIKEDFELQLNKQLIFDSVFSASFWGGMLVPIGDKPSSIADRFYLGGPTSIRGFSMHSIGPQSEGDYLGGEAYWAGGLHLYTPLPFRPGQGGFGELFRTHFFLNAGNLCNLNYGEGPKAHIRKLAECIRWSYGAGIVLRLGNIARLELNYCVPMGVQTGDRICDGVQFGAGIRFL

Source: article PMC4632003
